Source: paper PMC9781323
These are yes or no findings as the source states them, for the method shown. In cells and extracts the contact can be indirect. Some binding calls cover weakened binding; strength is not graded here.

Sequences of proteins named here, by UniProt entry; tags and fusion partners are left off.
UniProt Q14258: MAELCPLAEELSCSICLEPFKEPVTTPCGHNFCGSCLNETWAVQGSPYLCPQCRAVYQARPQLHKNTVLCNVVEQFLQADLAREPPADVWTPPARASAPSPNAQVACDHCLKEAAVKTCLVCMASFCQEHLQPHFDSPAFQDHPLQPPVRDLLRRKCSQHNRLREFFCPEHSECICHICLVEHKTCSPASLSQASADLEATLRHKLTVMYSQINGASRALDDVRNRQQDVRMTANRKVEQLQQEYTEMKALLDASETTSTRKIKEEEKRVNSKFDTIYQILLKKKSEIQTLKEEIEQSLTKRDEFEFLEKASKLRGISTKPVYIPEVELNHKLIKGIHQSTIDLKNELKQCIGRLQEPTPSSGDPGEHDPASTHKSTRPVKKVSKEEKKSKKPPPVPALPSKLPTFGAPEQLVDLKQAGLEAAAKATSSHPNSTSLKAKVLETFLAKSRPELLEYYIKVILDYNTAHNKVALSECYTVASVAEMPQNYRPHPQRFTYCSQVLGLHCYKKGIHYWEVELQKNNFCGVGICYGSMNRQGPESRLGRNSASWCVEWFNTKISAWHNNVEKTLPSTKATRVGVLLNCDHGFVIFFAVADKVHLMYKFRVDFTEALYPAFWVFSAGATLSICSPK

Target: T1, GTPase-activating protein SH3 domain-binding protein 2 (G3BP2), endogenous in 293T cells (human (endogenous in HEK293T)) (UniProt Q9UN86)
T1 sequence: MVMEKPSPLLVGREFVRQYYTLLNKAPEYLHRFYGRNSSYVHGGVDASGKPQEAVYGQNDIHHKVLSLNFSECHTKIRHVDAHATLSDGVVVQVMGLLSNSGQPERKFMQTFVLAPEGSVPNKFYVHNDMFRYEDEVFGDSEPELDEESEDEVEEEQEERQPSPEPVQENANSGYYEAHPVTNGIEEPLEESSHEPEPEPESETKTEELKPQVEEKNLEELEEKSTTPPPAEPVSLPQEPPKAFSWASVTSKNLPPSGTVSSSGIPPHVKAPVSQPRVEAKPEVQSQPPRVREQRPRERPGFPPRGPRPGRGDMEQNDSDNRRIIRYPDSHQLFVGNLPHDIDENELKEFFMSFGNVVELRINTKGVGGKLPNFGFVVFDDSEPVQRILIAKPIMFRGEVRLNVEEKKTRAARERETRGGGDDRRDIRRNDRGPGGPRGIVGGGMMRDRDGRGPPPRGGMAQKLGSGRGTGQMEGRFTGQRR
Experiment: co-IP; […] western blot, grayscale analysis

For “tripartite motif containing 25 (TRIM25), endogenous in 293T cells (from UniProt Q14258 1-630)”, the binding was “binds”.
